Data published in PubChem BioAssay AID504648 (National Center for Advancing Translational Sciences (NCATS), 2011).
Among all 390,000 compounds or so, about 610 (0.16%) were called active. The shares of active, inactive and inconclusive entries below differ from those in the screen. Calls follow the shape of the dose curve; as a rule, active = well fitted inhibition curve with a large enough effect; inconclusive = small, poorly fitted or top-dose-only effect, or effect the other way, or another doubt; inactive = no such curve, though single readings can be large or run the other way. Potencies of inconclusive entries are doubtful fits and often do not repeat.

Assay: Nrf2 qHTS screen for inhibitors: counterscreen for cytotoxicity
Settings: A549 ARE-Fluc cells, CellTiter-Fluor viability, 18-24 h; series mostly up to 46 µM; activity change, negative = cytotoxicity: at the top concentration
In short: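 A549 ARE_Fluc cells in 5% FBS OPTI-MEM were exposed to compounds in concentration-response for 18-24 h at 37 deg C. Viability was read by CellTiter-Fluor fluorescence (Ex 405/Em 525) after 30 min, before the luciferase read.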
% is scaled to controls: 0 for no effect and ±100 for the full control effect; potency is read from the fitted curve at half-maximal effect.

Row | SMILES | activity change, negative = cytotoxicity | Potency
1 | O=C(CCc1nc(C2=CCN(Cc3cccc(Cl)c3)CC2)no1)Nc1ccccc1F | inactive: 5.02% | –
2 | CC(N)Cc1c[nH]c2c1ccc1ccccc12 (configuration not stated) | inactive: -6.31% | –
3 | COC(=O)C1=C(c2ccc(Cl)c(C(F)(F)F)c2)C[C@@H]2CC[C@H]1N2C(=O)NC1CCCCC1 | – | inconclusive: 29.1 µM [falling, single point]
4 | CN1CCc2cc3c(c4c2C1Cc1ccccc1-4)OCO3 (configuration not stated) | – | inconclusive: 14.6 µM [activator, partial curve, poor fit]
5 | Fc1ccc(C[n+]2c(-c3ccccc3)cc(-c3ccccc3)cc2-c2ccccc2)cc1 | – | inconclusive: 29.1 µM [falling, single point]
6 | N/C(=N\N=C/c1ccc(-c2ccc(O)c(C(=O)O)c2)o1)N[N+](=O)[O-] | – | inconclusive: 22.4 µM [falling, single point]
7 | O=C(/C=C/c1ccc2c(c1)OCO2)c1c(O)n(CCc2ccccc2)c(=O)[nH]c1=O | – | inconclusive: 29.1 µM [falling, single point]
8 | CCOc1ccc(N2C(=O)/C(=C\c3cccs3)C(=O)NC2=S)cc1 | – | inconclusive: 29.1 µM [falling, single point]
9 | CCCCCn1c(=O)c(C(=O)Nc2nc3ccccc3[nH]2)c(O)c2ccccc21 | – | inconclusive: 5.8 µM [falling, full curve]
10 | O=c1cc(C(F)(F)F)c2cc3c4c(c2o1)CCCN4CCC3 | – | inconclusive: 2.91 µM [activator, full curve, poor fit]
11 | O=c1oc2ccccc2c(O)c1C(c1ccc([N+](=O)[O-])cc1)c1c(O)c2ccccc2oc1=O | – | inconclusive: 16.4 µM [falling, single point]
12 | C/C=C(\C)C(=O)N[C@@H](c1ccccc1)[C@@H](O)C(=O)O[C@H]1C[C@@]2(O)[C@@H](OC(=O)c3ccccc3)C3[C@](C)(C(=O)[C@H](O)C(=C1C)C2(C)C)[C@@H](O)C[C@H]1OC[C@@]31OC(C)=O (some centres not stated) | – | inconclusive: 2.91 µM [falling, partial curve, poor fit]
13 | CCCCc1nc(N2CCNCC2)c(C#N)c2c1CSC(C)(C)C2 | – | inconclusive: 4.11 µM [activator, partial curve, poor fit]
14 | O=C(c1ccc(N2CCCCCC2)c([N+](=O)[O-])c1)N1CCC2(CC1)OCCO2 | – | inconclusive: 29.1 µM [falling, partial curve, poor fit]
15 | Nc1cnn(-c2ccccc2)c(=O)c1Cl | inactive: -6.1% | –
16 | CC1=CC(C)CC(C)OC(=O)CC(c2ccc(O)cc2)NC(=O)C(Cc2c(Br)[nH]c3ccccc23)N(C)C(=O)C(C)NC(=O)C(C)C1 (configuration not stated) | – | active: 1.84 µM
17 | COc1ccc(N2C(=O)/C(=C/c3ccc(N(C)C)o3)C(=O)NC2=S)cc1 | – | inconclusive: 29.1 µM [falling, single point]
18 | CCOC(=O)C(O)(c1ccc(NC(=S)NC(=O)c2ccc(Cl)cc2Cl)c(C)c1)C(F)(F)F (configuration not stated) | – | inconclusive: 29.1 µM [falling, single point]
19 | Nc1c(C(=O)NCc2ccco2)c2nc3ccccc3nc2n1Cc1ccccc1 | – | inconclusive: 29.1 µM [activator, single point]
20 | COc1cc(C(=O)O)cc(OC)c1OC | inactive: 7.21% | –
21 | O=[N+]([O-])c1ccc(O)c([N+](=O)[O-])c1 | – | inconclusive: 23.1 µM [falling, single point]

Ordered by number of heavy atoms (ascending): part of the list above
Row | SMILES | activity change, negative = cytotoxicity | Potency
2 | CC(N)Cc1c[nH]c2c1ccc1ccccc12 (configuration not stated) | inactive: -6.31% | –
1 | O=C(CCc1nc(C2=CCN(Cc3cccc(Cl)c3)CC2)no1)Nc1ccccc1F | inactive: 5.02% | –
12 | C/C=C(\C)C(=O)N[C@@H](c1ccccc1)[C@@H](O)C(=O)O[C@H]1C[C@@]2(O)[C@@H](OC(=O)c3ccccc3)C3[C@](C)(C(=O)[C@H](O)C(=C1C)C2(C)C)[C@@H](O)C[C@H]1OC[C@@]31OC(C)=O (some centres not stated) | – | inconclusive: 2.91 µM [falling, partial curve, poor fit]

Later entries

Row | SMILES | activity change, negative = cytotoxicity | Potency
22 | CCC(=NCc1cccnc1)c1c(O)n(-c2ccc(C)cc2)c(=O)[nH]c1=O | – | inconclusive: 25.9 µM [activator, partial curve, poor fit]
23 | Cc1cc(=O)oc2cc3c(cc12)CCCN3 | – | inconclusive: 14.6 µM [activator, partial curve]
24 | O=c1[nH]c(O)c(N=Nc2cccc(S(=O)(=O)N3CCOCC3)c2)c(=O)[nH]1 | – | inconclusive: 29.1 µM [falling, partial curve, poor fit]
25 | CCCCNS(=O)(=O)c1ccc(OCC(=O)N2CCN(Cc3ccc4c(c3)OCO4)CC2)cc1 | – | inconclusive: 7.31 µM [falling, partial curve, poor fit]
26 | O=[N+]([O-])c1cccc(NP(=O)(Oc2ccccc2)Oc2ccccc2)c1 | – | inconclusive: 25.9 µM [falling, single point]
27 | COc1ccccc1-n1c(CNCC2CCCO2)nc2ccccc2c1=O (configuration not stated) | – | inconclusive: 16.4 µM [falling, partial curve, poor fit]
28 | FC(F)(F)c1ccc2c(c1)N(CCCN1CCN(CCCl)CC1)c1ccccc1S2 | – | inconclusive: 32.6 µM [falling, partial curve, poor fit]
29 | O=C(CCC1CCCC1)c1c(O)c2ccccc2oc1=O | – | inconclusive: 32.6 µM [falling, single point]
30 | Cc1cc(C)cc(-n2c(/C=C/c3cccc(F)c3)nc3ccccc3c2=O)c1 | inactive: -0.787% | –
31 | O=C1NC(=O)C(=Cc2cc3c(cc2[N+](=O)[O-])OCO3)C(=O)N1 | inactive: -8.18% | –
32 | CN1CCN(c2ccc(N)c(N3CCN(C)CC3)c2)CC1 | – | inconclusive: 16.4 µM [falling, partial curve, poor fit]
33 | CCCCCN=C(N)N/N=C/c1c[nH]c2ccc(OC)cc12 | – | inconclusive: 20.6 µM [falling, single point]
34 | COC(=O)C1=C(C(=O)OC)SC2(S1)C(C(=O)OC)=C(C(=O)OC)Sc1c2ssc1=O | – | inconclusive: 29.1 µM [falling, single point]
35 | CCCCCSc1cc(OC)c(CCNC)cc1OC | – | inconclusive: 18.4 µM [falling, single point]
36 | CCCNC(=O)c1c(N)n(CC2CCCO2)c2nc3ccccc3nc12 (configuration not stated) | – | inconclusive: 20.6 µM [activator, partial curve]
37 | COc1ccc(CN2C(=O)NC(=O)/C(=C/c3ccoc3)C2=O)cc1 | – | inconclusive: 32.6 µM [activator, partial curve, poor fit]
38 | O=C1NC(=O)C(=Cc2ccc(SC3CCCCC3)o2)C(=O)N1 | inactive: -11.7% | –
39 | COC(=O)C1=C(c2ccc(Cl)c(C(F)(F)F)c2)C[C@@H]2CC[C@H]1N2C(=O)NCCOc1ccc(OC)cc1 | – | inconclusive: 29.1 µM [falling, single point]
40 | C=C1C(O)[C@@H]2O[C@]3(CC[C@H](/C=C/C(C)[C@@H]4CC(C)=CC5(O[C@H](C[C@@](C)(O)C(=O)O)CCC5O)O4)O3)CC[C@H]2O[C@@H]1C(O)CC(C)[C@H]1OC2(CCCCO2)CCC1C (some centres not stated) | – | inconclusive: 0.0058 µM [falling, full curve, poor fit]
41 | COc1cccc2c1cc([N+](=O)[O-])c1c(C(=O)O)cc3c(c12)OCO3 | – | inconclusive: 32.6 µM [falling, partial curve, poor fit]
42 | CCCCCCCCn1sccc1=O | inactive: -3.77% | –

Row | SMILES | activity change, negative = cytotoxicity | Potency
43 | CC(CN(C)C1CCN(C)CC1)c1ccccc1 (configuration not stated) | inactive: -15.6% | –
44 | CC(C)c1ccc(N2C(=O)NC(=O)/C(=C/C=C/c3ccco3)C2=O)cc1 | – | inconclusive: 29.1 µM [falling, single point]
45 | O=c1[nH]c2ccccc2n1C1CCN(CCCC(c2ccc(F)cc2)c2ccc(F)cc2)CC1 | – | inconclusive: 32.6 µM [falling, partial curve, poor fit]
46 | CN1CCc2nc(N)c(C#N)c(-c3ccccc3)c2C1 | – | inconclusive: 29.1 µM [activator, partial curve, poor fit]
47 | CC(NC1CCCCC1)C(O)C12CC3CC(CC(C3)C1)C2 (configuration not stated) | – | inconclusive: 29.1 µM [falling, single point]
48 | CCOc1ccc(-c2c(C)n(-c3ccc(OCC)cc3)c3[n+]2CCCCC3)cc1 | inactive: -0.52% | –
49 | O=C1NC(=O)N(CCc2ccc(F)cc2)C(=O)/C1=C/C=C/c1ccccc1 | – | inconclusive: 23.1 µM [falling, single point]
50 | N#CC(C#N)=NNc1ccc([N+](=O)[O-])cc1 | – | active: 20.6 µM
51 | COc1ccc(-n2cnc3cc(C(=O)N4CCC5(CC4)OCCO5)ccc32)cc1 | – | inconclusive: 32.6 µM [falling, partial curve, poor fit]
52 | O=C1NC(=O)N(Cc2ccc(F)cc2)C(=O)/C1=C\C=C\c1ccco1 | – | inconclusive: 29.1 µM [falling, single point]
53 | CCOP(=O)(OCC)c1nc(-c2cccc3ccccc23)oc1NCc1ccccc1 | – | inconclusive: 25.9 µM [falling, partial curve, poor fit]
54 | COc1cc([C@@H]2c3cc4c(cc3C[C@H]3COC(=O)[C@@H]32)OCO4)cc(OC)c1O | inactive: -5.41% | –
55 | COC(=O)C1=C(c2c(C)noc2C)C[C@@H]2CC[C@H]1N2C(=O)NCCO | inactive: -2.92% | –
56 | C[C@]12CC[C@@H](O)CC1=CC(=O)C1C2CC[C@]2(C)C(=O)CCC12 (some centres not stated) | inactive: -0.55% | –
57 | CNc1cc(Cl)c2nonc2c1[N+](=O)[O-] | – | inconclusive: 18.4 µM [falling, single point]
58 | O=c1c2ccccc2nc(-c2ccco2)n1-c1nccs1 | – | inconclusive: 29.1 µM [falling, single point]
59 | N=C(N)c1c(O)n(C2CCCCC2)c(=O)n(C2CCCCC2)c1=O | – | inconclusive: 20.6 µM [falling, single point]
60 | CCC(=Nc1ccc(OC)cc1OC)c1c(O)n(C2CCCCC2)c(=O)[nH]c1=O | – | inconclusive: 20.6 µM [falling, single point]
61 | CCOc1ccc(NC(=O)c2ccc(NC(=O)COC(=O)Cc3ccccc3)cc2)cc1 | inactive: 7.67% | –
62 | CCOc1ccccc1-n1c(O)c(C=Nc2ccc(N(CC)CC)cc2)c(=O)[nH]c1=O | – | inconclusive: 20.6 µM [falling, single point]

As a working copy, 2 of the compounds above:
Row | SMILES | activity change, negative = cytotoxicity | Potency
60 | CCC(=Nc1ccc(OC)cc1OC)c1c(O)n(C2CCCCC2)c(=O)[nH]c1=O | – | inconclusive: 20.6 µM [falling, single point]
61 | CCOc1ccc(NC(=O)c2ccc(NC(=O)COC(=O)Cc3ccccc3)cc2)cc1 | inactive: 7.67% | –
